No constants are given. Whether binding was seen depends on the method and setting. For part of these data: In cells and extracts the contact can be indirect. Some binding calls cover weakened binding; strength is not graded here.

Chains of the proteins cited; added tags and fusions are not shown. Lines headed by an entry give the natural chain unless they say otherwise; changes in a name come on top. Residues count along the entry.
UniProt Q5S007: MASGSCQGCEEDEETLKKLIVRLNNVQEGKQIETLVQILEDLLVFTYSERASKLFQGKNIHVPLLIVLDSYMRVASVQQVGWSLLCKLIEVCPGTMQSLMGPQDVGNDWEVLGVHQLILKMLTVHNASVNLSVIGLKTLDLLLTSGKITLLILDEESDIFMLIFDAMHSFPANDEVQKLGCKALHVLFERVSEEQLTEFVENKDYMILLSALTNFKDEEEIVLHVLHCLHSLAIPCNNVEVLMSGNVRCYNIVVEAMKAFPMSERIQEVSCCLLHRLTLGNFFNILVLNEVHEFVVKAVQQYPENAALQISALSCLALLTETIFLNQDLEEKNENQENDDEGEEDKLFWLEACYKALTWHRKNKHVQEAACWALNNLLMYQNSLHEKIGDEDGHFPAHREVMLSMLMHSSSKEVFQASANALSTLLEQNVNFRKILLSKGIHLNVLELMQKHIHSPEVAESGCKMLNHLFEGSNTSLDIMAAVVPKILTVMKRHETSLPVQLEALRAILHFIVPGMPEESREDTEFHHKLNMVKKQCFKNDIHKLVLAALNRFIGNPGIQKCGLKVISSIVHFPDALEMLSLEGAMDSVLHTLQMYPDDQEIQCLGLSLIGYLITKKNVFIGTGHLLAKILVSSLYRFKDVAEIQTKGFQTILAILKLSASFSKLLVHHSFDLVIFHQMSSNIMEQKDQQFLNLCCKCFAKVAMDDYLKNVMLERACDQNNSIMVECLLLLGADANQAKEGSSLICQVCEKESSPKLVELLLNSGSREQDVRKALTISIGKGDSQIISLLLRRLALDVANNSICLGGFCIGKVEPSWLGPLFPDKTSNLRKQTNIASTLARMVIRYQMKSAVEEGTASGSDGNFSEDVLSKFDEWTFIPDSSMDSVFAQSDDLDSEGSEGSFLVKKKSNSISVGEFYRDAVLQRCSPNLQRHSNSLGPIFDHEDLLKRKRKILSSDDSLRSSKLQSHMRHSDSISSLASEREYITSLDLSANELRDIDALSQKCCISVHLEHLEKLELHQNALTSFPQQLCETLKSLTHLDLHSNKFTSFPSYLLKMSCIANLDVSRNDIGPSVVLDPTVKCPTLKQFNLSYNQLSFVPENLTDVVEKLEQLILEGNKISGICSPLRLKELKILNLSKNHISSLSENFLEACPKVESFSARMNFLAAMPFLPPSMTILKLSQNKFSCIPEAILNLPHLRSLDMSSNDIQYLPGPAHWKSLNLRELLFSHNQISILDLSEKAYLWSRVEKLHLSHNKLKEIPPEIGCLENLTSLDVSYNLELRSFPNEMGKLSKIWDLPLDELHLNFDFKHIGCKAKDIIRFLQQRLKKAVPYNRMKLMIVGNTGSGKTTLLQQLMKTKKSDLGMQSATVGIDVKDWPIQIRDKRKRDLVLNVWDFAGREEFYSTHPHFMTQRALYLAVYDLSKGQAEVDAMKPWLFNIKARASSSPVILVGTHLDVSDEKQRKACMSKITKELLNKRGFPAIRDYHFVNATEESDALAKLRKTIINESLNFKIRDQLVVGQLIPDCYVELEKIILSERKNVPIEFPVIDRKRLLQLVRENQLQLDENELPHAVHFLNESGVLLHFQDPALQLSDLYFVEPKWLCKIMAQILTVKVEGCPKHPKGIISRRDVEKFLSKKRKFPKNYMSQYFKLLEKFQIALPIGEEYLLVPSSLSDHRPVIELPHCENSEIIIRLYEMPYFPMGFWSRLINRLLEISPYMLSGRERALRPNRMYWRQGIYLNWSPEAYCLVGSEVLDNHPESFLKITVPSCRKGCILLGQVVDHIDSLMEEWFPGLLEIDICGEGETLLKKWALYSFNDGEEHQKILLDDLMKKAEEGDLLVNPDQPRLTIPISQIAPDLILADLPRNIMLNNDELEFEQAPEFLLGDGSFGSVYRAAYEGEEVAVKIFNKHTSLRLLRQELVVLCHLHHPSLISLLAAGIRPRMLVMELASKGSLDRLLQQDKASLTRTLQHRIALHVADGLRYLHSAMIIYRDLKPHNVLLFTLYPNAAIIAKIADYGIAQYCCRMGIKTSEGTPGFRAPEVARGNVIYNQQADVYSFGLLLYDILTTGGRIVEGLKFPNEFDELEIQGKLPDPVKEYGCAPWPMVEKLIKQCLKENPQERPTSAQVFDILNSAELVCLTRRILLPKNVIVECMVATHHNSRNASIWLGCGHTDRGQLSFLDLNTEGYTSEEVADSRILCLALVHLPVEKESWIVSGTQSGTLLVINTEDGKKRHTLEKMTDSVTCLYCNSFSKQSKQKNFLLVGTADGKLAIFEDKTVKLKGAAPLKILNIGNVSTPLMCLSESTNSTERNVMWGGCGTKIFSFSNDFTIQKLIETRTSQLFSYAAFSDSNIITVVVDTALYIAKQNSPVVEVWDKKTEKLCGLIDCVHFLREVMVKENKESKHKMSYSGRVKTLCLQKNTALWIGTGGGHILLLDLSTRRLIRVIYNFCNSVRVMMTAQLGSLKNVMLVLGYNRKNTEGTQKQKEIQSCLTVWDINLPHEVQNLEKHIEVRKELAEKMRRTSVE
LRRK2 Roc domain (LexA-BD bait): residues 1328-1511 of Q5S007
LRRK2 COR domain (LexA-BD bait): residues 1546-1740 of Q5S007
UniProt P07437: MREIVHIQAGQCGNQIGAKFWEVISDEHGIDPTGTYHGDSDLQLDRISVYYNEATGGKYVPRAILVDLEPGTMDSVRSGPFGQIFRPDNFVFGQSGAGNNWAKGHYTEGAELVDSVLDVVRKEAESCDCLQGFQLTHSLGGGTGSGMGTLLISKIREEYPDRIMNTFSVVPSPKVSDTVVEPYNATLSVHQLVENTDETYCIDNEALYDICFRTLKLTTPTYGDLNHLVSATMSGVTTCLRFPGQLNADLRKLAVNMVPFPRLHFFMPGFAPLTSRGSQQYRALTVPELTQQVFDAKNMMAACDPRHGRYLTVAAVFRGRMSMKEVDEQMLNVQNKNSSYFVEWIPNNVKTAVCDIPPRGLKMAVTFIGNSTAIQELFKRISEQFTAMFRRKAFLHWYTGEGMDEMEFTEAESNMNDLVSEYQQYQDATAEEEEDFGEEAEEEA
UniProt P04350: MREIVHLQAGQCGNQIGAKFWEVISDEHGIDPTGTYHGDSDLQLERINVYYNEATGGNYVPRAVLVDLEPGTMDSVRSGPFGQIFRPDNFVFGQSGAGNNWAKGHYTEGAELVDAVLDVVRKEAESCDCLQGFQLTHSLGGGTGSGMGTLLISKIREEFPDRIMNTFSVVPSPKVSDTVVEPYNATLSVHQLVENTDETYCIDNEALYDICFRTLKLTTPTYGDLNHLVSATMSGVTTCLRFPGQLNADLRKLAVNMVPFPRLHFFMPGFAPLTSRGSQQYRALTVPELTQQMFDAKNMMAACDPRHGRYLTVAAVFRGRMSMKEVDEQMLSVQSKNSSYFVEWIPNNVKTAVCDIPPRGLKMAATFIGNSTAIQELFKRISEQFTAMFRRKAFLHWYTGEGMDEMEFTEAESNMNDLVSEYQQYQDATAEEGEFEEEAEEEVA

In assay [1] the target is LRRK2 COR domain (LexA-BD bait) (human) (UniProt Q5S007). Kind of assay: two-hybrid; yeast L40, LexA-BD baits and GAL4-AD preys; selection without Leu, Trp, His with 0.5 mM 3-amino-1,2,4-triazole, 30 °C 3-6 days; semiquantitative LacZ freeze-fracture assays.
In assay [2] the target is LRRK2 Roc domain (LexA-BD bait) (human) (UniProt Q5S007). Described as above.
Assay [3] addresses full-length FLAG-tagged TUBB (human) (UniProt P07437). Description: co-IP; HEK293 cells transfected with FLAG-β-tubulin and myc-LRRK2 constructs; lysate on anti-FLAG M2 affinity gel overnight at 4 °C, elution with 3xFLAG peptide, anti-myc blot.
Assay [4] addresses full-length FLAG-tagged TUBB4 (human) (UniProt P04350). The assay is described as above.

For “TUBB4 C terminus (Phe-317 to Ala-444), GAL4-AD prey (from UniProt P04350 317-444) (domain or fragment)”, the values for the binding entry in assay [1] and in assay [2] were “no binding” and “binds”, respectively.

Turning to “TUBB C terminus (Phe-317 to the stop codon), GAL4-AD prey (from UniProt P07437 317-444) (domain or fragment)”, the binding entry in assay [1] was “no binding”; in assay [2], “binds”.

On to “full-length myc-tagged LRRK2 (wild type) (from UniProt Q5S007 1-2527)”, for which the binding entry in assay [3] and in assay [4] was “binds” throughout.

The record behind these values is paper PMC3887213.
